Results as given in publication PMC7134542.
No constants are given. Whether binding was seen depends on the method and setting. Binding calls can cover weak binding; strength is not graded here.

Target: Ctenopharyngodon idella c-Jun NH2-terminal kinase (CiJNK) (Ctenopharyngodon idella (grass carp))
Assay: two-hybrid; mammalian two-hybrid in HEK293T cells; pBIND fusion and pACT fusion co-transfected with pG5-Luc; Firefly and Renilla luciferase measured 48 h after transfection

binding | Binder
binds | Ctenopharyngodon idella MAPK kinase 4 (CiMKK4) (enzyme, UniProt A0A3G2LZD3 1-403) MATSSSSSNPSAAAASSLSSSSAQQHPTQSQQHISSTMSSMQGKRKALKLNFANPPIKPTSRITLNTAGLPFQNPHMERLRTHSIESSGKLKISPEQHWDFTAEDLKDLGEIGRGAYGSVNKMMHKPSEQIMAVKRIRSTVDEREQKQLLMDLDVVMRSSDCPYIVQFYGALFREGDCWICMELMSTSFDKFYKYVYSSLDEVIPEEILGKITLATVKALNHLKENLKIIHRDIKPSNILLDRKGNIKLCDFGISGQLVDSIAKTRDAGCRPYMAPERIDPSASRQGYDVRSDVWSLGITLYELATGRFPYPKWNSVFDQLTQVVKGDPPQLSSSEERQFSPKFINFVNLCLTKDESKRPKYKELLKHPFIQMYEERTVDVASYVCMILDQMPASPSSPMYVD
binds | Ctenopharyngodon idella MAPK kinase 7 (CiMKK7) (enzyme, UniProt A0A3G2LZC6 1-422) MSSLEQRLSRIEEKLKQENKEARKRIDLNIDMSPQRSRPRPTLQLPLANDGGSRSSSSESSPQHPSYPSRPRQMLTLPTPPYSLQKSLENAEIDQKLQEIMKQTGYLKIDGQRYPAEVTDLISEGEIGSGTCGQVFKVRFKKTGHVIAVKQMRRTGNKDENKRILMDLDVVLKSHDCPYIIQCYGAIVTNTDVFIAMELMGTCAEKLKKRIQGPIPEAILGKMTVAIVKALLYLKEKHGVIHRDVKPSNILLDAKGQIKLCDFGISGRLVDSKAKTRSAGCAAYMAPERIDPPDPSKPDYDIRADVWSLGISLVELATGQFPYKNCKTDFEVLTKVLQEDPPVLPLSMGFSPDFQSFVKDCLTKDHRKRPKYHKLLEHSFIRRYEVSEVDVAGWFQTVMERTESPRSSQCFSHHQLHSLFSR
